# According to patent US12158464B2, “Methods for modeling disease tissue using three-dimensional tissue systems” (priority 2013, dated 2024):
# Tested on: human cardiac tissue strands (hESC, Hes2 derived cardiomyocytes)
# Assay: Biorod drug testing: tissue beating pattern and contractile force by polymer wire deflection
# Format: cell-based
# Details: 100 nM
# Experimental: Cardiomyocytes were derived from human embryonic stem cell lines (hESC, Hes2). Embryoid bodies (EBs) were differentiated to the cardiovascular lineage and disassociated as previously described in Device 1 Methods. […] After seeding, brightfield images (see FIG. 39A for an example) of the tissue strands were taken every day (n=3 per group) using optical microscope (Olympus CKX41) and the diameters of the tissue strands at four distinct locations were analyzed with imageJ (see FIG. 39B for an example). Tissue strand lengths were also analyzed with same method.
# Tissue contractile behavior tracing and measurement was carried out. POMac is auto-fluorescent at a wide range of wavelenths; therefore the wires were imaged with a fluorescence microscope under DAPI channel (e.g. 461 nm wavelength) to trace the bending movements of the wires. […] Image sequences were analyzed with ImageJ software using tracking plugin. […] Tissue stretching wires can be considered uniformly distributed Load, Wo (Load per force bearing length), which can be calculated with displacement of center point of wires in image sequence, and F can be calculated as well. […]
smiles,measurement,value
Cc1cccc(CCN2CCC(C(=O)c3ccc(NS(C)(=O)=O)cc3)CC2)n1 [E4301],tissue beating pattern,prolonged relaxation and occasional after beat
